From patent US20070031511A1, “Method of treatment” (priority 2003, published 2007)
The name of at least one read-out is uncertain.

Tests used:
CCK-2 receptor [1] = molecular target: T1, CCK-2 receptor (Homo sapiens, UniProt P32239); test: [125I]-BH-CCK8 displacement, CCK-2 receptor on transiently transfected COS-7 cells; format: binding; parameters: COS-7 cells transiently transfected with CCK-2 receptor cDNA; expressed in transfected cells; host or cells: COS-7; details: 1 μM DFO
T1 sequence (P32239 1-447): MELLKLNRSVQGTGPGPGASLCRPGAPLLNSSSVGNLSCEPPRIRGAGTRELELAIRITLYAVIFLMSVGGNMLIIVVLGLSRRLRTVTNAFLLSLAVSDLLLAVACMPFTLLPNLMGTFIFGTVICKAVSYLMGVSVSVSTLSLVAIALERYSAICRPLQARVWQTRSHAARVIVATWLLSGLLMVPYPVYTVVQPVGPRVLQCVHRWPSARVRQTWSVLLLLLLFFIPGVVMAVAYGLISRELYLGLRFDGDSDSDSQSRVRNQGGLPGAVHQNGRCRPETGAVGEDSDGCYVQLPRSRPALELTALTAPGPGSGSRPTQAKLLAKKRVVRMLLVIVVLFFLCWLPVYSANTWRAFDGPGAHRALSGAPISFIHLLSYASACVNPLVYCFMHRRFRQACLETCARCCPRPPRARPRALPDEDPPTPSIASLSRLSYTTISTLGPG
Experimental: (§1) Non-specific binding was evaluated with […] of unlabelled CCK8. Incubation was stopped by adding 2 ml of ice-cold PBS containing 2% bovine serum albumin. After centrifugation, supernatants were removed and the radioactivity bound to the cell membranes was measured in a γ-counter (LKB, Wallac, Finland).
The lines of best fit shown in FIG. 21 were obtained by nonlinear regression to a single site model with the program Sigmaplot.

CCK-2 receptor [2] = molecular target: T1, CCK-2 receptor; test: [125I]-BH-CCK8 displacement, CCK-2 receptor on Jurkat cells; format: binding; details: 1 μM DFO
Experimental: as §1

Compound: CC(=O)N(O)CCCCCNC(=O)CCC(=O)N(O)CCCCCNC(=O)CCC(=O)N(O)CCCCCN [DFO, desferrioxamine]
- Effect of DFO on IC50 value for Gamide binding (CCK-2 receptor [1]): no significant difference in the IC50 value
- Effect of DFO on IC50 value for Gamide binding (CCK-2 receptor [2]): no significant difference in the IC50 value
